According to PMC6328564:
No constants are given. Whether binding was seen depends on the method and setting. In cells and extracts the contact can be indirect. Some binding calls cover weakened binding; strength is not graded here.

Sequences of proteins named here, by UniProt entry; tags and fusion partners are left off.
UniProt Q9UNS2: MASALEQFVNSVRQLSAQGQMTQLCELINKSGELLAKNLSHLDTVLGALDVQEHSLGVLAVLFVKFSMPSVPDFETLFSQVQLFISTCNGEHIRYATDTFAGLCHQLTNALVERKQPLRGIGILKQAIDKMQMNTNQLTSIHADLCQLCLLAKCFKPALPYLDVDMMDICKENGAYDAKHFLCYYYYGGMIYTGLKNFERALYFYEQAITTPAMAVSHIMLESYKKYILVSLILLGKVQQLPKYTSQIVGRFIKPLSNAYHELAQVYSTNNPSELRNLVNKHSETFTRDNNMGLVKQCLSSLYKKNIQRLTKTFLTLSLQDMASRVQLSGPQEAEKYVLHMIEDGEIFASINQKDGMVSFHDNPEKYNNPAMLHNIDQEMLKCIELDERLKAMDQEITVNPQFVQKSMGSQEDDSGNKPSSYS

Target: endogenous Sos1 (human, HeLa cells) (human (endogenous in HeLa)) (UniProt Q07889)
Assay: co-IP; immunoprecipitates with Sos1 antibodies (HeLa lysates) or anti-CSN3 (primary MEF lysates, untreated or tamoxifen-treated to deplete Sos1), Pierce Crosslink Immunoprecipitation Kit; immunoblot with anti-Sos1 or anti-CSN3

binding: binds
Substance: cellular CSN3 (endogenous, HeLa cells) (from UniProt Q9UNS2 1-423)
